Taken from: PubChem BioAssay AID1224830 (NIAID, 2016)

Test: 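Host factors that control LPS-induced TNF expression in human macrophages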 (primary screen)
Cells: human THP-1 monocytic leukaemia cells, TNF dual-luciferase reporter clone, PMA-differentiated to macrophage-like cells
Reagent: siRNA pool against human genes, 50 nM
Time to read-out: LPS for 4 h, given about 3 days after siRNA transfection
Conditions: bacterial LPS (TLR4 ligand), 10 ng/ml
Measurement: 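Ratio of firefly to renilla light, scaled to the plate median and expressed as a robust z-score per replicate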
Direction: TNF reporter robust z-score: higher = stronger TNF reporter response to LPS
Hit rule: 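a well is active when its z-score exceeds 2.8 or falls below -1.5; control wells carry no call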
In all, the deposit lists about 18,000 reagents; below is a random part of them. About 2,900 of all reagents (16%) count as active. 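Calls are made per well; low scores hint the gene aids the LPS response, high scores that it dampens it.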 Entries without a mark were called inactive. Repeated entries: four replicate wells of each siRNA pool. No sequences are given here.

gene knocked down	PubChem SID	TNF reporter robust z-score
DNAJC25-GNG10	SID315465039	-2.01 (active)
DNAJC25-GNG10	SID315465039	-1.56 (active)
DNAJC25-GNG10	SID315465039	-1.84 (active)
DNAJC25-GNG10	SID315465039	-1.75 (active)
KCNK4	SID315456351	-0.03
KCNK4	SID315456351	0.62
KCNK4	SID315456351	0.28
KCNK4	SID315456351	-0.21
MBOAT1	SID315462583	-0.08
MBOAT1	SID315462583	-0.19
MBOAT1	SID315462583	0.01
MBOAT1	SID315462583	0.2
TWF2	SID315454776	-1.86 (active)
TWF2	SID315454776	-1.61 (active)
TWF2	SID315454776	-2.2 (active)
TWF2	SID315454776	-1.72 (active)
TCF7	SID315451787	0.02
TCF7	SID315451787	0.06
TCF7	SID315451787	-0.25
TCF7	SID315451787	0.18
DDX46	SID315453640	-1.35
DDX46	SID315453640	-0.51
DDX46	SID315453640	-0.85
DDX46	SID315453640	-0.7
SLC7A14	SID315458563	-1.28
SLC7A14	SID315458563	-1.33
SLC7A14	SID315458563	-1.05
ARF1	SID315447383	0
ARF1	SID315447383	-0.65
ARF1	SID315447383	-1.22
ARF1	SID315447383	-0.58
SMARCD3	SID315451532	1.37
SMARCD3	SID315451532	1.67
SMARCD3	SID315451532	0.31
SMARCD3	SID315451532	-0.98
TMEM198	SID315461870	1.4
TMEM198	SID315461870	2.07
TMEM198	SID315461870	2.41
TMEM198	SID315461870	2.21
CEACAM7	SID315447893	1.42
CEACAM7	SID315447893	0.54
CEACAM7	SID315447893	0.11
CEACAM7	SID315447893	0.86
USP5	SID315452391	0.16
USP5	SID315452391	-1.06
USP5	SID315452391	-0.38
USP5	SID315452391	0.36
RECK	SID315452555	-0.12
RECK	SID315452555	0.37
RECK	SID315452555	0
RECK	SID315452555	0.46
EPHA2	SID315448471	0.77
EPHA2	SID315448471	-0.12
EPHA2	SID315448471	-0.31
EPHA2	SID315448471	-0.09
RPL8	SID315451176	-0.48
RPL8	SID315451176	1.41
RPL8	SID315451176	0.27
RPL8	SID315451176	1.28
CDC37L1	SID315457755	1.79
CDC37L1	SID315457755	1.89
CDC37L1	SID315457755	0.86
CDC37L1	SID315457755	2.05
CYP3A43	SID315459011	2.44
CYP3A43	SID315459011	3.04 (active)
CYP3A43	SID315459011	0.77
CYP3A43	SID315459011	-0.06
CTCFL	SID315462120	-0.2
CTCFL	SID315462120	-0.67
CTCFL	SID315462120	-0.73
CTCFL	SID315462120	0
NBPF8	SID315465063	0.19
NBPF8	SID315465063	0.74
NBPF8	SID315465063	-0.16
NBPF8	SID315465063	0.11
RNASEH2B	SID315459329	-0.26
RNASEH2B	SID315459329	0.2
RNASEH2B	SID315459329	-0.03
RNASEH2B	SID315459329	1.14
TENT4B	SID315458882	5.31 (active)
TENT4B	SID315458882	3.35 (active)
TENT4B	SID315458882	2.63
TENT4B	SID315458882	3.43 (active)
TMEM61	SID315463013	-0.49
TMEM61	SID315463013	-0.07
TMEM61	SID315463013	-0.32
TMEM61	SID315463013	-0.26
BRMS1	SID315455514	0.44
BRMS1	SID315455514	-0.57
BRMS1	SID315455514	-0.53
BRMS1	SID315455514	-0.05
GGA2	SID315454962	0.58
GGA2	SID315454962	1.62
GGA2	SID315454962	0.28
GGA2	SID315454962	1.9
KLK15	SID315457677	-1.08
KLK15	SID315457677	-0.75
KLK15	SID315457677	0.48
KLK15	SID315457677	-1.02
MTFR2	SID315461173	0.55
MTFR2	SID315461173	2.05
MTFR2	SID315461173	1.55
MTFR2	SID315461173	-0.26
EGF	SID315448455	0.21
EGF	SID315448455	-0.5
EGF	SID315448455	0.53
EGF	SID315448455	-0.02
BCL6B	SID315463507	-0.46
BCL6B	SID315463507	1.95
BCL6B	SID315463507	1.87
BCL6B	SID315463507	1.57
TMEM165	SID315457914	-0.1
TMEM165	SID315457914	-0.21
TMEM165	SID315457914	-0.08
TMEM165	SID315457914	-0.5
SLC15A3	SID315456621	-0.56
SLC15A3	SID315456621	0.49
SLC15A3	SID315456621	0.33
SLC15A3	SID315456621	1.14
ELOA	SID315451781	-0.66
ELOA	SID315451781	-1.1
ELOA	SID315451781	-0.16
ELOA	SID315451781	-1.21
TBC1D32	SID315463285	0.01
TBC1D32	SID315463285	0.3
TBC1D32	SID315463285	0.15
TBC1D32	SID315463285	1.04
RIMS3	SID315453562	-0.57
RIMS3	SID315453562	-0.38
RIMS3	SID315453562	-0.62
RIMS3	SID315453562	-0.48
ZNF671	SID315459543	-0.65
ZNF671	SID315459543	0.56
ZNF671	SID315459543	0.37
ZNF671	SID315459543	-0.35
SUCNR1	SID315458106	0.8
SUCNR1	SID315458106	1.22
SUCNR1	SID315458106	1.03
SDHA	SID315451358	-0.64
SDHA	SID315451358	0.08
SDHA	SID315451358	-0.6
SDHA	SID315451358	0.17

Called active (from the list above):
gene knocked down	PubChem SID	TNF reporter robust z-score
DNAJC25-GNG10	SID315465039	-2.01 (active)
DNAJC25-GNG10	SID315465039	-1.56 (active)
DNAJC25-GNG10	SID315465039	-1.84 (active)
DNAJC25-GNG10	SID315465039	-1.75 (active)
TWF2	SID315454776	-1.86 (active)
TWF2	SID315454776	-1.61 (active)
TWF2	SID315454776	-2.2 (active)
TWF2	SID315454776	-1.72 (active)
CYP3A43	SID315459011	3.04 (active)
TENT4B	SID315458882	5.31 (active)
TENT4B	SID315458882	3.35 (active)
TENT4B	SID315458882	3.43 (active)
